Experimental data reported in PubChem BioAssay AID588590 (National Center for Advancing Translational Sciences (NCATS), 2011).
The whole screen tested about 390,000 compounds, of which about 4,000 (1%) were called active. Inconclusive means that the source gave no clear call. Such entries were picked first, then a sample of the others. Calls follow the shape of the dose curve; as a rule, active = well fitted inhibition curve with a large enough effect; inconclusive = small, poorly fitted or top-dose-only effect, or another doubt; inactive = no such curve, though single readings can be large or run the other way. Potencies beside an inconclusive call are fits to weak or partial responses and may not hold up.

Sequences of proteins named here, by UniProt entry; tags and fusion partners are left off. A change or cut given only in a name is not applied to a line headed by its entry.
UniProt Q9UNA4: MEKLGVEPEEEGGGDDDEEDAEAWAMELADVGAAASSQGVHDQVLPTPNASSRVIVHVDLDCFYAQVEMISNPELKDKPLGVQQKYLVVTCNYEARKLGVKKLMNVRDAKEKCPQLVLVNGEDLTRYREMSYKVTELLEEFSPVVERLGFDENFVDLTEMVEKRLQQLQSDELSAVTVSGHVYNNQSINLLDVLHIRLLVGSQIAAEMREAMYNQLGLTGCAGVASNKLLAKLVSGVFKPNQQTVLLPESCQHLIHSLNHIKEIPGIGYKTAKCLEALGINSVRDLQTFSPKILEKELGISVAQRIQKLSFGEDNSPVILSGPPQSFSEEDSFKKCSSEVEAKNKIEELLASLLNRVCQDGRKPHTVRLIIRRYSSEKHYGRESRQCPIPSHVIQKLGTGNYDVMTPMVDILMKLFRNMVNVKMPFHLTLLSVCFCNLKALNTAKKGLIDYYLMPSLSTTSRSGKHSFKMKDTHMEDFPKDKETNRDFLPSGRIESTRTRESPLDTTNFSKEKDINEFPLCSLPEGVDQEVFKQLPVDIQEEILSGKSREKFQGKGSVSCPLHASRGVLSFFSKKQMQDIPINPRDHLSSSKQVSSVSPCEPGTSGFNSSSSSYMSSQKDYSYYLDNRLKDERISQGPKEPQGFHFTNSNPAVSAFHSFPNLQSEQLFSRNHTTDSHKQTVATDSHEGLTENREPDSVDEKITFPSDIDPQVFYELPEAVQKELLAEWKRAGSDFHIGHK

Molecular target: DNA polymerase iota (Homo sapiens) (UniProt Q9UNA4)
Test: qHTS for Inhibitors of Polymerase Iota
Conditions: Pol iota fluorescent replication assay, 10 min; series mostly up to 115 µM; activity, negative = inhibition: at the top concentration
Procedure, shortened: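 Pol iota at 10 nM preincubated 15 min with compounds at room temperature; reaction started with fluorescent substrate, 50 nM final. Fluorescence read kinetically at 0 and 10 min; buffer-only wells as negative control.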
Potency is read from the fitted curve at half-maximal effect.

SMILES	activity, negative = inhibition	Potency
CCN(CC(=O)NCc1cccs1)C(=O)CCC(=O)c1ccc(C)cc1	inactive: 52.6%	
CC(C)C(NC(=O)Cc1ccccc1)C(=O)N1CCN(c2cccc(Cl)c2)CC1 (configuration not stated)	inactive: -4.18%	
Cc1cccc(N2CCN(C(=O)C3CCN(S(=O)(=O)c4cnc[nH]4)CC3)CC2)c1C		inconclusive: 31.6 µM [inhibitor, single point]
COc1cc(CNCCSc2nnnn2C)ccc1OCc1ccc(F)cc1		inconclusive: 89.1 µM [inhibitor, partial curve, poor fit]
O=c1[nH]cc(N=Cc2cc(Cl)cc(Cl)c2O)c(=O)[nH]1		inconclusive: 4.47 µM [inhibitor, full curve, poor fit]
Cc1ccc(C(=O)NCC(c2ccco2)S(=O)(=O)c2ccccc2)cc1C (configuration not stated)	inactive: 18.9%	
CCOC(=O)c1cc(-c2ccccc2)n(CCC(=O)NCCc2ccc(C)cc2)c1C		inconclusive: 100 µM [inhibitor, single point]
Cc1ccc(S(=O)(=O)c2nnn(CC(=O)Nc3ccccc3C)c2N)cc1		inconclusive: 89.1 µM [inhibitor, single point]
S=c1[nH]nc(-c2cc(-c3ccco3)[nH]n2)n1-c1ccccc1	inactive: 7.24%	
O=C(CCCCCCCC(=O)N1CCCCCC1)N1CCCCCC1		inconclusive: 100 µM [inhibitor, single point]
CC(/C=N\NC(=O)Cn1c(C)nc2ccccc21)=C\c1ccccc1		inconclusive: 35.5 µM [inhibitor, partial curve, poor fit]
O=C(Nc1nc(-c2ccccc2)ns1)c1ccc(Cl)cc1		inconclusive: 12.6 µM [inhibitor, partial curve, poor fit]
O=C(Nc1ccc(Oc2cccnc2)cc1)c1cccc([N+](=O)[O-])c1		inconclusive: 89.1 µM [inhibitor, single point]
CN(C)CCNc1nccc(N2CCN(C)CC2)n1	inactive: -3.57%	
Clc1ccc(-c2ccc(-c3nn4c(-c5ccco5)nnc4s3)o2)cc1		inconclusive: 14.1 µM [inhibitor, partial curve, poor fit]
COc1ccc(CCNC(=O)CNCCc2ccc(F)cc2)cc1		inconclusive: 70.8 µM [inhibitor, partial curve, poor fit]
O=C(Nc1ccc([N+](=O)[O-])cc1)Nc1cnccn1	inactive: 10.5%	
Cc1cccc(-n2nc3c(c2NC(=O)c2ccco2)CSC3)c1C		active: 14.1 µM
COC(=O)c1sccc1NC(=O)COc1ccc(Cl)cc1Cl		inconclusive: 100 µM [inhibitor, partial curve, poor fit]
CCN(CC)c1ccc(NC(=O)C2CCN(S(=O)(=O)c3ccc4c(c3)oc(=O)n4C)CC2)c(C)c1	inactive: -9.81%	
S=C(NC1CCCC1)N1CCN(c2cccc(Cl)c2)CC1		inconclusive: 2.24 µM [inhibitor, full curve, poor fit]
CCOC(=O)c1ccc(N(CCC2CO2)S(=O)(=O)c2ccc(C)cc2)cc1 (configuration not stated)	inactive: -17.7%	
CCOc1ccc(NC(=O)CN2C(=O)c3ccccc3Sc3ccc(C(=O)OC)cc32)cc1	inactive: 3.98%	

Filtered by structure: the entries above with four or more nitrogen atoms (nine)
SMILES	activity, negative = inhibition	Potency
Cc1cccc(N2CCN(C(=O)C3CCN(S(=O)(=O)c4cnc[nH]4)CC3)CC2)c1C		inconclusive: 31.6 µM [inhibitor, single point]
COc1cc(CNCCSc2nnnn2C)ccc1OCc1ccc(F)cc1		inconclusive: 89.1 µM [inhibitor, partial curve, poor fit]
Cc1ccc(S(=O)(=O)c2nnn(CC(=O)Nc3ccccc3C)c2N)cc1		inconclusive: 89.1 µM [inhibitor, single point]
S=c1[nH]nc(-c2cc(-c3ccco3)[nH]n2)n1-c1ccccc1	inactive: 7.24%	
CC(/C=N\NC(=O)Cn1c(C)nc2ccccc21)=C\c1ccccc1		inconclusive: 35.5 µM [inhibitor, partial curve, poor fit]
CN(C)CCNc1nccc(N2CCN(C)CC2)n1	inactive: -3.57%	
Clc1ccc(-c2ccc(-c3nn4c(-c5ccco5)nnc4s3)o2)cc1		inconclusive: 14.1 µM [inhibitor, partial curve, poor fit]
O=C(Nc1ccc([N+](=O)[O-])cc1)Nc1cnccn1	inactive: 10.5%	
CCN(CC)c1ccc(NC(=O)C2CCN(S(=O)(=O)c3ccc4c(c3)oc(=O)n4C)CC2)c(C)c1	inactive: -9.81%	

Next part.

SMILES	activity, negative = inhibition	Potency
COc1ccc(-c2csc(NC(=S)NC(=O)/C=C/c3ccco3)n2)cc1OC		inconclusive: 39.8 µM [inhibitor, single point]
O=S(=O)(Nc1ccc(Cl)cc1)c1ccc(N2CCOCC2)c(NC(=S)NCCN2CCOCC2)c1		inconclusive: 39.8 µM [inhibitor, partial curve, poor fit]
COc1ccc(C(=O)NCc2ccc3c(c2)cc(C)n3C)cc1		inconclusive: 50.1 µM [inhibitor, partial curve, poor fit]
CN(C)c1ccc(C(=C2C=CC(=[N+](C)C)C=C2)c2ccc(N(C)C)cc2)cc1	inactive: -7.42%	
O=C(C1CCC(Cn2c(=O)c3sccc3n(Cc3ccccc3F)c2=O)CC1)N1CCOCC1 (configuration not stated)	inactive: 9.21%	
O=C1NC(=S)S/C1=C\c1cccc([N+](=O)[O-])c1		inconclusive: 22.4 µM [inhibitor, partial curve]
COc1cccc(NC(=O)CN2C(=O)CC(c3ccco3)Sc3ccccc32)c1 (configuration not stated)		inconclusive: 3.55 µM [inhibitor, full curve, poor fit]
COc1ccc(/C=N/Nc2cc(C)nc3ccc(OC)cc23)c(OC)c1		inconclusive: 20 µM [inhibitor, partial curve, poor fit]
CCOc1ccc(CCNC(=O)c2ccc3c(=O)[nH]c4c(C(=O)NC(C)C)sc(=S)n4c3c2)cc1	inactive: -8.9%	
CCc1ccc(NC(=O)N2CCN(Cc3nc4ccc(C)cc4o3)CC2)cc1	inactive: 23.2%	
CC(C)OCCCn1c(-c2ccc(Br)cc2)c[nH]c1=S	inactive: 127%	
COc1ccc(NC(C#N)c2ccccc2OCc2ccccc2)cc1 (configuration not stated)		inconclusive: 35.5 µM [inhibitor, full curve, poor fit]
CCOC(=O)c1ccc(-c2ccc3c(=O)c4ccccc4n(C)c3c2)cc1F		inconclusive: 0.631 µM [inhibitor, full curve, poor fit]
Cc1cc(C)cc(N(CC(=O)NC2CCCC2)C(=O)c2csnn2)c1		inconclusive: 89.1 µM [inhibitor, single point]
c1cc(SC2CCCCC2)cc(-c2nc3cnccn3c2NC2CCCCC2)c1		inconclusive: 28.2 µM [inhibitor, single point]
CC1(C)Cc2c(c(N3CCOCC3)nc3sc4c(=O)[nH]cnc4c23)CS1		inconclusive: 112 µM [inhibitor, single point]
COc1cc(NC(=O)c2ccccc2F)c(OC)cc1NC(=O)CN1CCOCC1	inactive: 104%	
C=CCNc1nc(-c2cccs2)c(CC(=O)O)s1		inconclusive: 22.4 µM [inhibitor, partial curve]
Oc1ccc(/C=N/NC(=S)Nc2cccnc2)cc1O		active: 3.55 µM
O=C1CCC/C(=N/NC(=O)c2cc(NS(=O)(=O)c3cccs3)cc(NS(=O)(=O)c3cccs3)c2)C1		inconclusive: 15.8 µM [inhibitor, full curve]
COc1ccc(-n2nc3c(N4CCC(C(=O)NCCc5ccco5)CC4)nnc(C)c3c2C)cc1		inconclusive: 56.2 µM [inhibitor, partial curve, poor fit]
CC(=O)c1ccc(S(=O)(=O)NCCC(=O)NCCc2c[nH]c3ccccc23)cc1		inconclusive: 79.4 µM [inhibitor, single point]
O=C(c1ccc(NS(=O)(=O)c2cccc3cccnc23)cc1)N1CCOCC1		inconclusive: 89.1 µM [inhibitor, single point]

SMILES	activity, negative = inhibition	Potency
Cc1cc(C)c(N=C2C(=O)Nc3ccccc32)c(C)c1		inconclusive: 50.1 µM [inhibitor, partial curve]
CCOC(=O)C1=C(O)CSC1=Nc1ccc(C)cc1		inconclusive: 10 µM [inhibitor, partial curve, poor fit]
O=C(/C=C/c1ccc2c(c1)S(=O)(=O)N(Cc1ccccc1)[C@H]2CC(=O)N1CCOCC1)N1CCOCC1		inconclusive: 39.8 µM [inhibitor, single point]
COc1ccc(-c2sc3cc(OC)c(OC)cc3c2C#CCCO)cc1		inconclusive: 89.1 µM [inhibitor, single point]
Cc1ccc(O)c(-c2ccnc3cc(-c4ccc(Cl)cc4)nn23)c1		inconclusive: 89.1 µM [inhibitor, single point]
COc1cc(-c2nc3sccn3c2Nc2cccc(C)c2)ccc1O	inactive: 11%	
CCCCOc1ccc(C(=O)NCC2(N3CCN(C)CC3)CCCCC2)cc1	inactive: 44.4%	
CCN(CC)CCC(=O)N1c2ccccc2Sc2ccc(NC(=O)OC)cc21		inconclusive: 50.1 µM [inhibitor, partial curve]
CCOc1ccc(S(=O)(=O)N(C)CC(=O)NCc2ccco2)cc1	inactive: -1.87%	
CC(C)NC(=O)C(c1ccc(F)cc1)N(C(=O)CCC(=O)Nc1ccccn1)C1CCCCC1 (configuration not stated)		inconclusive: 89.1 µM [inhibitor, single point]
Cc1c2cnn(-c3ccccc3)c(=O)c2c(C)n1CC(=O)NCc1ccccc1Br	inactive: 19.5%	
Cc1cccc(CCNC(=O)Cn2ncc3c(=O)oc4ccccc4c32)c1		inconclusive: 70.8 µM [inhibitor, single point]
COC(=O)C(N)Cc1ccc(O)c(O)c1 (configuration not stated)		inconclusive: 11.2 µM [inhibitor, full curve, poor fit]
CCCCCC[n+]1c(-c2ccc(Cl)cc2Cl)csc1Nc1ccccc1		inconclusive: 112 µM [inhibitor, partial curve, poor fit]
Cc1ccc2oc(-c3ccccc3)c(C(=O)O)c(=O)c2c1		inconclusive: 112 µM [inhibitor, single point]
C=C(C)CSc1nc2sc3c(c2c(=O)n1-c1ccccc1)CCN(C)C3		inconclusive: 31.6 µM [inhibitor, full curve, poor fit]
Cc1c(C(=O)N(C)C)sc2c1c(=O)n(-c1ccc(F)cc1)c(=O)n2Cc1cc(=O)n2ccccc2n1	inactive: 6.5%	
COc1cccc(CNC(=O)C2Cc3cc(S(=O)(=O)N4CCCCCC4)ccc3N2C(C)=O)c1 (configuration not stated)	inactive: 35.3%	
Cc1cccc(NC(=O)CN2C(=O)S/C(=C\c3ccc(-c4cccc(C(=O)O)c4C)o3)C2=O)c1		inconclusive: 35.5 µM [inhibitor, single point]
C=CCn1c(=O)c2ccccc2n2c(SCC(=O)/C(C#N)=C(\C)N)nnc12		inconclusive: 44.7 µM [inhibitor, partial curve, poor fit]
CN(c1ccccc1)S(=O)(=O)c1cccc(NC(=O)c2ccc(=O)[nH]n2)c1		inconclusive: 12.6 µM [inhibitor, full curve]

Fetched by structure from above, two records:
SMILES	activity, negative = inhibition	Potency
CCOc1ccc(S(=O)(=O)N(C)CC(=O)NCc2ccco2)cc1	inactive: -1.87%	
Cc1c2cnn(-c3ccccc3)c(=O)c2c(C)n1CC(=O)NCc1ccccc1Br	inactive: 19.5%	
